The values that follow come from US20020164697A1.

The chains behind the UniProt entries cited, without tags or fusion partners. Where a name states a change or a piece, a line headed by the entry shows the natural chain unless it says otherwise. Residues count along the entry.
UniProt P27986, residues 2-724: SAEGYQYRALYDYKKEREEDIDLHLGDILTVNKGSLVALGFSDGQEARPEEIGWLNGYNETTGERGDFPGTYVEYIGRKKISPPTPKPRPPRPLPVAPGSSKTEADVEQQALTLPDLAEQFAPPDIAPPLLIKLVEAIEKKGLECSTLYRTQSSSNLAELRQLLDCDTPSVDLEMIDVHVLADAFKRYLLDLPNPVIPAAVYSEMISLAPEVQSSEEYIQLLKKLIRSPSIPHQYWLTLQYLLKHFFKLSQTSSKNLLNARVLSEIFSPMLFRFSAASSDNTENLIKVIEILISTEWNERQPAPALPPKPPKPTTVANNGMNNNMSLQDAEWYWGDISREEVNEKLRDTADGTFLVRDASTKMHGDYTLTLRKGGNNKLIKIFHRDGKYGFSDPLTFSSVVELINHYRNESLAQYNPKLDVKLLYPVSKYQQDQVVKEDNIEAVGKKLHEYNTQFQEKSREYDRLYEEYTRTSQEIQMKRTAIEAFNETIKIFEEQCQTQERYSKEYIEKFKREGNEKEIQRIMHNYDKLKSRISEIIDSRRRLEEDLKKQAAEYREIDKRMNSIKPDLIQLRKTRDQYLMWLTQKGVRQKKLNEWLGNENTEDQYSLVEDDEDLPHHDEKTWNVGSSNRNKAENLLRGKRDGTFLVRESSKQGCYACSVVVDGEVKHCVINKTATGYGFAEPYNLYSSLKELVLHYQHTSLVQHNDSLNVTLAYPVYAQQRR
UniProt P10747: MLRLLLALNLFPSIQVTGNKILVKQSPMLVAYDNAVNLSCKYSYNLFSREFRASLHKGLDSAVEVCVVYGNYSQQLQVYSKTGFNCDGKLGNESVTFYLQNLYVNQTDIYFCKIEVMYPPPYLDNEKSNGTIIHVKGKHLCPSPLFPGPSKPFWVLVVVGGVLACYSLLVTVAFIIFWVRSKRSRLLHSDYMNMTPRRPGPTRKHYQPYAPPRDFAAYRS

Results are given in words; binding and its absence hold for the method and conditions named. In cells and extracts the contact can be indirect. Some results given as binding are weak or reduced against the parent protein; the word gives no strength.

The experiment deals with p85 subunit of phosphatidylinositol 3-kinase (PI-3K) (UniProt P27986). Nature of the experiment: co-immunoprecipitation from Jurkat cells, anti-p85 immunoblot. For orientation: In western blotting, separated proteins are transferred to a membrane and probed.

As to “CD28 on Jurkat cells (hCD28) (from UniProt P10747 19-220) (receptor)”, the binding result is given as “binds”.
